Results as given in the supplement of paper PMC8728848.
The list shows a part of the results.

Columns and labels:
Assay in all cases: glycan array binding signal (z-score within array); higher = stronger binding
Details in all cases: glycan notation: IUPAC condensed, linker removed
[1] = target: Gal(b1-4)GlcNAc(b1-2)Man(a1-3)[Gal(b1-4)GlcNAc(b1-2)Man(a1-6)]Man(b1-4)GlcNAc(b1-4)GlcNAc
How it was run: (§1)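 Glycan array binding is given as a within-array Z-score, which can be read as non-binding when negative. The arrays, 3228 of them, came from the Consortium for Functional Glycomics database and were retained only where the protein sequence was available. Z-scores were averaged across arrays of the same protein sequence at different concentrations or buffers and across linkers.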

[2] = target: Gal(b1-4)GlcNAc(b1-2)Man(a1-3)[Gal(b1-4)GlcNAc(b1-2)Man(a1-6)]Man(b1-4)GlcNAc(b1-4)[Fuc(a1-6)]GlcNAc
How it was run: as §1

[3] = target: Gal(b1-4)GlcNAc(b1-2)Man(a1-3)[Gal(b1-4)GlcNAc(b1-2)][GlcNAc(b1-4)]Man(b1-4)GlcNAc(b1-4)GlcNAc
How it was run: as §1

[4] = target: Gal(b1-4)GlcNAc(b1-2)Man(a1-3)[GlcNAc(b1-2)Man(a1-6)]Man(b1-4)GlcNAc(b1-4)GlcNAc
How it was run: as §1

[5] = target: Gal(b1-4)GlcNAc(b1-2)Man(a1-3)[Man(a1-6)]Man(b1-4)GlcNAc(b1-4)GlcNAc
How it was run: as §1

[6] = target: Gal(b1-4)GlcNAc(b1-2)Man(a1-6)Man(b1-4)GlcNAc(b1-4)GlcNAc
How it was run: as §1

[7] = target: Gal(b1-4)GlcNAc(b1-2)Man(a1-6)[GlcNAc(b1-2)Man(a1-3)]Man(b1-4)GlcNAc(b1-4)GlcNAc
How it was run: as §1

[8] = target: Gal(b1-4)GlcNAc(b1-2)Man(a1-6)[Man(a1-3)]Man(b1-4)GlcNAc(b1-4)GlcNAc
How it was run: as §1

[9] = target: Gal(b1-4)GlcNAc(b1-2)[Gal(b1-4)GlcNAc(b1-4)]Man(a1-3)[Gal(b1-4)GlcNAc(b1-2)Man(a1-6)]Man(b1-4)GlcNAc(b1-4)GlcNAc
How it was run: as §1

[10] = target: Gal(b1-4)GlcNAc(b1-2)[Gal(b1-4)GlcNAc(b1-4)]Man(a1-3)[Gal(b1-4)GlcNAc(b1-2)[Gal(b1-4)GlcNAc(b1-6)]Man(a1-6)]Man(b1-4)GlcNAc(b1-4)GlcNAc
How it was run: as §1

[11] = target: Gal(b1-4)GlcNAc(b1-2)[Gal(b1-4)GlcNAc(b1-4)]Man(a1-3)[GlcNAc(b1-4)][Gal(b1-4)GlcNAc(b1-2)Man(a1-6)]Man(b1-4)GlcNAc(b1-4)GlcNAc
How it was run: as §1

[12] = target: Gal(b1-4)GlcNAc(b1-2)[Gal(b1-4)GlcNAc(b1-4)]Man(a1-3)[GlcNAc(b1-4)][Gal(b1-4)GlcNAc(b1-2)[Gal(b1-4)GlcNAc(b1-6)]Man(a1-6)]Man(b1-4)GlcNAc(b1-4)GlcNAc
How it was run: as §1

[13] = target: Gal(b1-4)GlcNAc(b1-2)[Gal(b1-4)GlcNAc(b1-6)]Man(a1-6)[Gal(b1-4)GlcNAc(b1-2)Man(a1-3)]Man(b1-4)GlcNAc(b1-4)GlcNAc
How it was run: as §1

[14] = target: Gal(b1-4)GlcNAc(b1-2)[Gal(b1-4)GlcNAc(b1-6)]Man(a1-6)[GlcNAc(b1-4)][Gal(b1-4)GlcNAc(b1-2)Man(a1-3)]Man(b1-4)GlcNAc(b1-4)GlcNAc
How it was run: as §1

[15] = target: Gal(b1-4)GlcNAc(b1-3)Gal(b1-3)GlcNAc
How it was run: as §1

[16] = target: Gal(b1-4)GlcNAc(b1-3)Gal(b1-4)Glc
How it was run: as §1

[17] = target: Gal(b1-4)GlcNAc(b1-3)Gal(b1-4)GlcNAc
How it was run: as §1

[18] = target: Gal(b1-4)GlcNAc(b1-3)Gal(b1-4)GlcNAc(b1-3)Gal(b1-4)GlcNAc
How it was run: as §1

[19] = target: Gal(b1-4)GlcNAc(b1-3)Gal(b1-4)[Fuc(a1-3)GlcNAc(b1-6)]Gal(b1-4)Glc
How it was run: as §1

[20] = target: Gal(b1-4)GlcNAc(b1-3)Gal(b1-4)[Fuc(a1-3)]GlcNAc(b1-3)Gal(b1-4)[Fuc(a1-3)]GlcNAc
How it was run: as §1

[21] = target: Gal(b1-4)GlcNAc(b1-3)GalNAc
How it was run: as §1

[22] = target: Gal(b1-4)GlcNAc(b1-3)[Gal(b1-4)GlcNAc(b1-6)]Gal(b1-4)GlcNAc
How it was run: as §1

[23] = target: Gal(b1-4)GlcNAc(b1-3)[Gal(b1-4)GlcNAc(b1-6)]GalNAc
How it was run: as §1

[24] = target: Gal(b1-4)GlcNAc(b1-3)[GlcNAc(b1-6)]Gal(b1-4)GlcNAc
How it was run: as §1

[25] = target: Gal(b1-4)GlcNAc(b1-6)Gal(b1-4)GlcNAc
How it was run: as §1

[26] = target: Gal(b1-4)GlcNAc(b1-6)GalNAc
How it was run: as §1

[27] = target: Gal(b1-4)GlcNAc(b1-6)[Gal(b1-3)]GalNAc
How it was run: as §1

[28] = target: Gal(b1-6)Gal
How it was run: as §1

[29] = target: Gal3S(b1-3)GalNAc
How it was run: as §1

[30] = target: Gal3S(b1-3)GlcNAc
How it was run: as §1

[31] = target: Gal3S(b1-3)[Fuc(a1-4)]GlcNAc
How it was run: as §1

[32] = target: Gal3S(b1-4)Glc
How it was run: as §1

[33] = target: Gal3S(b1-4)Glc6S
How it was run: as §1

[34] = target: Gal3S(b1-4)GlcNAc
How it was run: as §1

[35] = target: Gal3S(b1-4)GlcNAc6S
How it was run: as §1

[36] = target: Gal3S(b1-4)[Fuc(a1-3)]Glc
How it was run: as §1

[37] = target: Gal3S(b1-4)[Fuc(a1-3)]Glc6S
How it was run: as §1

[38] = target: Gal3S4S(b1-4)GlcNAc
How it was run: as §1

[39] = target: Gal3S6S(b1-4)GlcNAc
How it was run: as §1

[40] = target: Gal3S6S(b1-4)GlcNAc6S
How it was run: as §1

[41] = target: Gal4S(b1-4)GlcNAc
How it was run: as §1

[42] = target: Gal4S6S(b1-4)GlcNAc
How it was run: as §1

[43] = target: Gal6S(b1-3)GlcNAc
How it was run: as §1

[44] = target: Gal6S(b1-3)GlcNAc6S
How it was run: as §1

[45] = target: Gal6S(b1-4)Glc
How it was run: as §1

B1: DCL-1 (Homo sapiens), Q8IX05 (protein)
chain: MLRAALPALLLPLLGLAAAAVADCPSSTWIQFQDSCYIFLQEAIKVESIEDVRNQCTDHGADMISIHNEEENAFILDTLKKQWKGPDDILLGMFYDTDDASFKWFDNSNMTFDKWTDQDDDEDLVDTCAFLHIKTGEWKKGNCEVSSVEGTLCKTAIPYKRKYLSDNHILISALVIASTVILTVLGAIIWFLYKKHSDSRFTTVFSTAPQSPYNEDCVLVVGEENEYPVQFD
Q: What does the source list for B1?
A: glycan array binding signal (z-score) [1]: 1.63; glycan array binding signal (z-score) [2]: -0.048; glycan array binding signal (z-score) [3]: -0.786; glycan array binding signal (z-score) [4]: 0.478; glycan array binding signal (z-score) [5]: -0.71; glycan array binding signal (z-score) [6]: -0.622; glycan array binding signal (z-score) [7]: 0.387; glycan array binding signal (z-score) [8]: -0.541; glycan array binding signal (z-score) [9]: -0.037; glycan array binding signal (z-score) [10]: 0.224; glycan array binding signal (z-score) [11]: 1.33; glycan array binding signal (z-score) [12]: -0.379; glycan array binding signal (z-score) [13]: 0.317; glycan array binding signal (z-score) [14]: -0.117; glycan array binding signal (z-score) [15]: 0.326; glycan array binding signal (z-score) [16]: 0.196; glycan array binding signal (z-score) [17]: 2.35; glycan array binding signal (z-score) [18]: -0.206; glycan array binding signal (z-score) [19]: 0.396; glycan array binding signal (z-score) [20]: 0.107; glycan array binding signal (z-score) [21]: 0.221; glycan array binding signal (z-score) [22]: -0.9; glycan array binding signal (z-score) [23]: -0.088; glycan array binding signal (z-score) [24]: 0.859; glycan array binding signal (z-score) [25]: 0.43; glycan array binding signal (z-score) [26]: -0.33; glycan array binding signal (z-score) [27]: -0.001; glycan array binding signal (z-score) [28]: -0.915; glycan array binding signal (z-score) [29]: 0.095; glycan array binding signal (z-score) [30]: -0.083; glycan array binding signal (z-score) [31]: -0.974; glycan array binding signal (z-score) [32]: -1.45; glycan array binding signal (z-score) [33]: 0.022; glycan array binding signal (z-score) [34]: 0.357; glycan array binding signal (z-score) [35]: -0.517; glycan array binding signal (z-score) [36]: -0.654; glycan array binding signal (z-score) [37]: 0.532; glycan array binding signal (z-score) [38]: -0.755; glycan array binding signal (z-score) [39]: 0.398; glycan array binding signal (z-score) [40]: -0.676; glycan array binding signal (z-score) [41]: -0.14; glycan array binding signal (z-score) [42]: -0.625; glycan array binding signal (z-score) [43]: -0.306; glycan array binding signal (z-score) [44]: -0.474; glycan array binding signal (z-score) [45]: 0.156
